Paper PMC3666897
No constants are given. Whether binding was seen depends on the method and setting.

Key:
Experiment in all cases: SEC; S200 SMART column; after dilution with monomerization buffer (15% glycerol, 20 mM HEPES pH 7.4, 100 mM NaCl, 0.1 mM TCEP) and incubation overnight at 15°C; both purified
[1] = target: E. coli DNA polymerase III α subunit (residues 1-917) 3mPHP mutant (R10H, F44H, R203H) (E. coli) (UniProt P10443)
[2] = target: E. coli DNA polymerase III α subunit (residues 1-917) 4mPHP mutant (R10H, F44H, G134C, R203H) (E. coli) (UniProt P10443)
[3] = target: E. coli DNA polymerase III α subunit (residues 1-917) 5mPHP mutant (R10H, F44H, D69E, G134C, R203H) (E. coli) (UniProt P10443)
[4] = target: E. coli DNA polymerase III α subunit, truncated version (residues 1-917), wild type (E. coli) (UniProt P10443)

Substance: E. coli DNA polymerase III α subunit (residues 1-917) 3mPHP mutant (R10H, F44H, R203H) (from UniProt P10443 1-917) (enzyme)
- binding [1]: no binding

Substance: E. coli DNA polymerase III α subunit (residues 1-917) 4mPHP mutant (R10H, F44H, G134C, R203H) (from UniProt P10443 1-917) (enzyme)
- binding [2]: no binding

Substance: E. coli DNA polymerase III α subunit (residues 1-917) 5mPHP mutant (R10H, F44H, D69E, G134C, R203H) (from UniProt P10443 1-917) (enzyme)
- binding [3]: no binding

Substance: E. coli DNA polymerase III α subunit, truncated version (residues 1-917), wild type (from UniProt P10443 1-917) (enzyme)
- binding [4]: no binding
